Data set [1] deals with ob/ob mice. The data set can be described thus: ob/ob mice administered ZAG i.v. for 5 days (120 h): body weight, temperature, plasma metabolites, tissue weights. Type of data set: in vivo, mouse. Here is the method: Animals—Mice. Homozygous obese (ob/ob) mice from the colony maintained at Aston University were used in the present study. The origin and characteristics of Aston ob/ob mice have been previously described. Male mice (20-21 weeks old, weight 90-100 g) were grouped into three per cage in an air conditioned room at 22±2° C. with a 12 h-light:12 h-dark cycle and fed a rat and mouse breeding diet (Special Diet Services, Witham, UK) and tap water ad libitum. They were administered ZAG (35 μg) in PBS (100 μl) b.d. by i.v. administration and body weight and food and water intake were monitored daily. Control mice received PBS alone. Body temperature was measured daily by the use of a rectal thermometer (RS Components, Northants, UK). […]
Serum Metabolite Determinations. Non-esterified fatty acids (NEFA) were determined using a Wako-ASC-ACOD kit (Wako Chemical GmbH, Neuss, Germany). Triglycerides were determined using a Triglyceride kit (Sigma Chemical Co., Poole, United Kingdom) and 3-hydroxybutyrate by a quantitative enzymatic determination kit (Sigma). Glucose was measured using a glucose analyser (Beckman, Irvine, Calif.) and glycerol was determined enzymatically using the method of Wieland as described in “Methods of Enzymatic Analysis” (Ed. Bergmeyer, H. U.) Vol. 3, pp1404-1409, published by Academic Press, London (1974).

Data set [2] concerns ob/ob mice. In words: ob/ob mice treated with ZAG, 21 day study. Type of data set: in vivo, mouse. Here is the method: FIG. 7A is a graphical diagram showing weight loss of the ob/ob mice during the 21 day study. ZAG was injected at days 1, 4, 5, 8, 13, 16, 18, and 19; PBS was injected at the same time points.
Animals—Mice. Homozygous obese (ob/ob) mice from the colony maintained at Aston University were used in the present study. The origin and characteristics of Aston ob/ob mice have been previously described. Male mice (20-21 weeks old, weight 90-100 g) were grouped into three per cage in an air conditioned room at 22±2° C. with a 12 h-light:12 h-dark cycle and fed a rat and mouse breeding diet (Special Diet Services, Witham, UK) and tap water ad libitum. They were administered ZAG (35 μg) in PBS (100 μl) b.d. by i.v. administration and body weight and food and water intake were monitored daily. Control mice received PBS alone. Body temperature was measured daily by the use of a rectal thermometer (RS Components, Northants, UK). All animal experiments were carried out in accordance with the U.K. Animals (Scientific Procedures) Act 1986.
After 21 days, the plasma metabolite levels in the ob/ob mice were observed (Table 2), with monitored parameters shown in Table 3. […]

The test system of data set [3] is male Wistar rats. The data set can be described thus: mature male Wistar rats, daily i.v. ZAG for 10 days: body weight, body composition, plasma metabolites. Type of data set: in vivo, rat. The protocol: Animal—Rats. Mature male Wistar rats (one year old from our own colony) weighing 540±82.5 g were housed individually and treated once daily i.v., with either ZAG in PBS (100 μl) (50 μg per 100 g body weight), or with PBS (100 μl) as a control. Both food and water intake and body weight were measured daily. Animals were given free access to food (Special Diet Services, Essex, UK) and water ad libitum. The animal experiment was carried out under the welfare conditions imposed by the British Home Office. After 10 days treatment the animals were terminated and the body composition determined. Animals were heated to 80-90° C. for 7 days until constant weight was achieved. The water content was then determined from the difference between the wet and dry weight. Lipids were extracted from the dry carcass using a sequence of chloroform:methanol (1:1), ethanol/acetone (1:1) and diethyl ether (120 ml of each) as described by Lundholm et al (14). […] The non-fat carcass mass was calculated as the difference between the initial weight of the carcass and the weight of water and fat.
Serum Metabolite Determinations. Non-esterified fatty acids (NEFA) were determined using a Wako-ASC-ACOD kit (Wako Chemical GmbH, Neuss, Germany). Triglycerides were determined using a Triglyceride kit (Sigma Chemical Co., Poole, United Kingdom) and 3-hydroxybutyrate by a quantitative enzymatic determination kit (Sigma). […]

B1: ZAG: recombinant full length human zinc-α2-glycoprotein (SEQ ID NO: 1) secreted by transfected HEK293F cells; lipid mobilizing factor (protein, listed as Homo sapiens)
chain: QENQDGRYSLTYIYTGLSKHVEDVPAFQALGSLNDLQFFRYNSKDRKSQPMGLWRQVEGMEDWKEDSQLQKAREDMETLKDIVEYYNDSNGSHVLQGRFGCEIENNRSSGAFWKYYYDGKDYIEFNKEIPAWVPFDPAAQITKQKWEAEPVYVQRAKAYLEEECPATLRKYLKYSKNILDRQDPPSVVVTSHQAPGEKKKLKCLAYDFYPGKIDVHWTRAGQVQEPELRGDVLHNGNGTYQSWVVVAVPPQDTAPYSCHVQHSSLAQPLVVPWEAS
With B1, in data set [1], the “food intake over the course of the experiment” value was determined as 30 ± 2.5 g and the “water intake over the course of the experiment” value amounted to 135 ± 3.2 mL. In data set [2], this molecule came in with a Food of 145 ± 4 g and a Water of 259 ± 20 mL. In addition, in data set [3], the food intake is 102 ± 32 g and the water intake is 135 ± 35 mL.

(Values after patent US10077295B2, “Glycoproteins having lipid mobilizing properties and therapeutic uses thereof” (Aston University, priority 2010, dated 2018).)
